Data reported in paper PMC4912122.
Results are given in words; binding and its absence hold for the method and conditions named. Binding seen in cells or lysates may run through a third protein. Binding can be weak; no strength is given. Sequences can lack the tags named with a protein.

Target: GFP-tagged NbCUL1 (N. benthamiana)
Experiment: co-IP; proteins co-expressed in N. benthamiana leaves by agroinfiltration, 50 μM MG132 12 h before harvest; GFP-tagged bait or GFP precipitated with GFP-Trap beads, 2 hours at 4°C, buffer NB1; blots with anti-HA, anti-GFP, anti-Myc

B1: Myc-COI1 (protein, UniProt O04197 1-592)
chain: MEDPDIKRCKLSCVATVDDVIEQVMTYITDPKDRDSASLVCRRWFKIDSETREHVTMALCYTATPDRLSRRFPNLRSLKLKGKPRAAMFNLIPENWGGYVTPWVTEISNNLRQLKSVHFRRMIVSDLDLDRLAKARADDLETLKLDKCSGFTTDGLLSIVTHCRKIKTLLMEESSFSEKDGKWLHELAQHNTSLEVLNFYMTEFAKISPKDLETIARNCRSLVSVKVGDFEILELVGFFKAAANLEEFCGGSLNEDIGMPEKYMNLVFPRKLCRLGLSYMGPNEMPILFPFAAQIRKLDLLYALLETEDHCTLIQKCPNLEVLETRNVIGDRGLEVLAQYCKQLKRLRIERGADEQGMEDEEGLVSQRGLIALAQGCQELEYMAVYVSDITNESLESIGTYLKNLCDFRLVLLDREERITDLPLDNGVRSLLIGCKKLRRFAFYLRQGGLTDLGLSYIGQYSPNVRWMLLGYVGESDEGLMEFSRGCPNLQKLEMRGCCFSERAIAAAVTKLPSLRYLWVQGYRASMTGQDLMQMARPYWNIELIPSRRVPEVNQQGEIREMEHPAHILAYYSLAGQRTDCPTTVRVLKEPI
In the case of B1, the binding is reported as “binds”.
